# Laboratory results reported in US12577587B2 (priority 2009, dated 2026).
# At least one compound was matched to its structure with a doubt left.
# System: KBM7 cells
# Type: cell-based, human
compound,measurement,value
NC[C@@H]1O[C@H](O[C@H]2[C@@H](O)[C@H](O[C@@H]3[C@@H](O)[C@H](N)C[C@H](N)[C@H]3O[C@H]3O[C@H](CN)[C@@H](O)[C@H](O)[C@H]3N)O[C@@H]2CO)[C@H](N)[C@@H](O)[C@@H]1O [neomycin],resistance of cells to neomycin,inherently resistant to very high concentrations
